Source: article PMC7199855, “GRAF2, WDR44, and MICAL1 mediate Rab8/10/11–dependent export of E-cadherin, MMP14, and CFTR ΔF508” (The Journal of Cell Biology, 2020)
Results are given in words; binding and its absence hold for the method and conditions named. In cells and extracts the contact can be indirect. Some results given as binding are weak or reduced against the parent protein; the word gives no strength. Tags and fused reporters may be left off the sequences shown.

The chains behind the UniProt entries cited, without tags or fusion partners. Where a name states a change or a piece, a line headed by the entry shows the natural chain unless it says otherwise.
UniProt P61007: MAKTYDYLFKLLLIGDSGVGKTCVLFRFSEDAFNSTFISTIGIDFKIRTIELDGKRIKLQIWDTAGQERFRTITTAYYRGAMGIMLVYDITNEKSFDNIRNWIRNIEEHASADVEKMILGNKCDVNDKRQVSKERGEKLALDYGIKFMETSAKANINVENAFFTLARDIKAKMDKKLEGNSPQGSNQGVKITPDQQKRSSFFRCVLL

Legend:
Assay in all cases: co-IP; transfected 293T, IP with α-GFP and Protein G Sepharose; 20 mM Hepes pH 7.4, 150 mM NaCl, 2 mM EDTA, 1% IGEPAL CA-630; Western blot
[1] = molecular target: GFP-Rab8a Q67L (canine) (UniProt P61007)
[2] = molecular target: GFP-Rab8a T22N (canine) (UniProt P61007)
[3] = molecular target: T1, GRAF1b-GFP (human) (UniProt Q9UNA1)
T1 sequence: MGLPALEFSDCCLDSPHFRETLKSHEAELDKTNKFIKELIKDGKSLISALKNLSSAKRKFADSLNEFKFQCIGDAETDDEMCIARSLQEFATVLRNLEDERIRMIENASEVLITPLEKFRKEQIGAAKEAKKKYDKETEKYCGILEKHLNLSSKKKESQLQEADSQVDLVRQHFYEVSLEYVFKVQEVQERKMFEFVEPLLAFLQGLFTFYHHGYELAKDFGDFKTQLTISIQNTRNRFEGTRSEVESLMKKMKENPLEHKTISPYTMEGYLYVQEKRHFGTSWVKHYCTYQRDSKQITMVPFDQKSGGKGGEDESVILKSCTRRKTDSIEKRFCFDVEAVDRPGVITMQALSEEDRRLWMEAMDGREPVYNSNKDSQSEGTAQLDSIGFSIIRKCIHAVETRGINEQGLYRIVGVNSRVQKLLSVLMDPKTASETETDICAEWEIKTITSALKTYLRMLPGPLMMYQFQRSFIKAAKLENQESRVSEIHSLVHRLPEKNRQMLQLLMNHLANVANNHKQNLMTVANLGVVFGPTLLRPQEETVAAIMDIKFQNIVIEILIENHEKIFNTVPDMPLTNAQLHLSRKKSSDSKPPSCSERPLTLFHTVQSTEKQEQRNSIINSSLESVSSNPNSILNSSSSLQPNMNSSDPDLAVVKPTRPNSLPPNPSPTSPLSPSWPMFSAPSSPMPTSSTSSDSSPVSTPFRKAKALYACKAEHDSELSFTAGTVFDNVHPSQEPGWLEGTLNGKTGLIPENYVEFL

[4] = molecular target: T2, GRAF2-GFP (human) (UniProt A1A4S6)
T2 sequence: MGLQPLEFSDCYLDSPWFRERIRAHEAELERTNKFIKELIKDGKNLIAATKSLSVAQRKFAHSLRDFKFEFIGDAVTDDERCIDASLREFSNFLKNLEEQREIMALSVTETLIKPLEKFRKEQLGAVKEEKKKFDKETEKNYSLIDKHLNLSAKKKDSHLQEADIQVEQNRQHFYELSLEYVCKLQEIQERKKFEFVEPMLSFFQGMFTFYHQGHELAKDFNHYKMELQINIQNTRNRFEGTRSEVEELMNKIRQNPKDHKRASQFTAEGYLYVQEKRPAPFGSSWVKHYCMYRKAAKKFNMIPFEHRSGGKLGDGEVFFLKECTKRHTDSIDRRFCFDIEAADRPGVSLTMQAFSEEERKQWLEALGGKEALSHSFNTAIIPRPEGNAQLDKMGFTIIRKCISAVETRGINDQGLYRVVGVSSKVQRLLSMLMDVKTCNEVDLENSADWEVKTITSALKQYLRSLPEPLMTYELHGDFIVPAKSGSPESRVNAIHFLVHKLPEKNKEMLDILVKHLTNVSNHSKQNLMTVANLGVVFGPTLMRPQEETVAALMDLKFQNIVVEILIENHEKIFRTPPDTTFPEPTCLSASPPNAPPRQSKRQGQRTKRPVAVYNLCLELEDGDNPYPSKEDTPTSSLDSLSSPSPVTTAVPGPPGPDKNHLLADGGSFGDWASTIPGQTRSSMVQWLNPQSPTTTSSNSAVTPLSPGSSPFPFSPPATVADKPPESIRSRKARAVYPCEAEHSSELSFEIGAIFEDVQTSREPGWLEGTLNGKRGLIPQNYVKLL

B1: myc-MICAL1 (protein, UniProt Q8TDZ2 1-1067)
chain: MASPTSTNPAHAHFESFLQAQLCQDVLSSFQELCGALGLEPGGGLPQYHKIKDQLNYWSAKSLWTKLDKRAGQPVYQQGRACTSTKCLVVGAGPCGLRVAVELALLGARVVLVEKRTKFSRHNVLHLWPFTIHDLRALGAKKFYGRFCTGTLDHISIRQLQLLLLKVALLLGVEIHWGVTFTGLQPPPRKGSGWRAQLQPNPPAQLANYEFDVLISAAGGKFVPEGFKVREMRGKLAIGITANFVNGRTVEETQVPEISGVARIYNQSFFQSLLKATGIDLENIVYYKDDTHYFVMTAKKQCLLRLGVLRQDWPDTNRLLGSANVVPEALQRFTRAAADFATHGKLGKLEFAQDAHGQPDVSAFDFTSMMRAESSARVQEKHGARLLLGLVGDCLVEPFWPLGTGVARGFLAAFDAAWMVKRWAEGAESLEVLAERESLYQLLSQTSPENMHRNVAQYGLDPATRYPNLNLRAVTPNQVRDLYDVLAKEPVQRNNDKTDTGMPATGSAGTQEELLRWCQEQTAGYPGVHVSDLSSSWADGLALCALVYRLQPGLLEPSELQGLGALEATAWALKVAENELGITPVVSAQAVVAGSDPLGLIAYLSHFHSAFKSMAHSPGPVSQASPGTSSAVLFLSKLQRTLQRSRAKENAEDAGGKKLRLEMEAETPSTEVPPDPEPGVPLTPPSQHQEAGAGDLCALCGEHLYVLERLCVNGHFFHRSCFRCHTCEATLWPGGYEQHPGDGHFYCLQHLPQTDHKAEGSDRGPESPELPTPSENSMPPGLSTPTASQEGAGPVPDPSQPTRRQIRLSSPERQRLSSLNLTPDPEMEPPPKPPRSCSALARHALESSFVGWGLPVQSPQALVAMEKEEKESPFSSEEEEEDVPLDSDVEQALQTFAKTSGTMNNYPTWRRTLLRRAKEEEMKRFCKAQTIQRRLNEIEAALRELEAEGVKLELALRRQSSSPEQQKKLWVGQLLQLVDKKNSLVAEEAELMITVQELNLEEKQWQLDQELRGYMNREENLKTAADRQAEDQVLRKLVDLVNQRDALIRFQEERRLSELALGTGAQG
In the case of B1, the binding [1] is reported as “binds”, the binding [2] is reported as “no binding” and the binding [3] is reported as “binds”. The binding [4] was “binds”.
